Results from paper PMC13096421.
Like-named read-outs stand apart in the source and are kept apart here. These are yes or no findings as the source states them, for the method shown. In cells and extracts the contact can be indirect. Here binding means that the protein was enriched with, or labelled near, the bait; the list need not be complete.

Protein sequences, listed by entry. Tags and fused reporters are not part of them. Residues count along the entry.
UniProt P62138: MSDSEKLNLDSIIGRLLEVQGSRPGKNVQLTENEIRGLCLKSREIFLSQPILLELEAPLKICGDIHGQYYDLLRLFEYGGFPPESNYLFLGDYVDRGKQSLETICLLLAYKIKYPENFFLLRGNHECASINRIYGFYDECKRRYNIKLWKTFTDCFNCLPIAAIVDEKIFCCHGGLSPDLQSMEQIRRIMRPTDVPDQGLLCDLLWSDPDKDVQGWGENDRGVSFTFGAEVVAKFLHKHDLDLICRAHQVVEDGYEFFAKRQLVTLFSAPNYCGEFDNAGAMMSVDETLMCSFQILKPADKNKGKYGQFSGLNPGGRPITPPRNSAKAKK
UniProt P31424, residues 21-1203: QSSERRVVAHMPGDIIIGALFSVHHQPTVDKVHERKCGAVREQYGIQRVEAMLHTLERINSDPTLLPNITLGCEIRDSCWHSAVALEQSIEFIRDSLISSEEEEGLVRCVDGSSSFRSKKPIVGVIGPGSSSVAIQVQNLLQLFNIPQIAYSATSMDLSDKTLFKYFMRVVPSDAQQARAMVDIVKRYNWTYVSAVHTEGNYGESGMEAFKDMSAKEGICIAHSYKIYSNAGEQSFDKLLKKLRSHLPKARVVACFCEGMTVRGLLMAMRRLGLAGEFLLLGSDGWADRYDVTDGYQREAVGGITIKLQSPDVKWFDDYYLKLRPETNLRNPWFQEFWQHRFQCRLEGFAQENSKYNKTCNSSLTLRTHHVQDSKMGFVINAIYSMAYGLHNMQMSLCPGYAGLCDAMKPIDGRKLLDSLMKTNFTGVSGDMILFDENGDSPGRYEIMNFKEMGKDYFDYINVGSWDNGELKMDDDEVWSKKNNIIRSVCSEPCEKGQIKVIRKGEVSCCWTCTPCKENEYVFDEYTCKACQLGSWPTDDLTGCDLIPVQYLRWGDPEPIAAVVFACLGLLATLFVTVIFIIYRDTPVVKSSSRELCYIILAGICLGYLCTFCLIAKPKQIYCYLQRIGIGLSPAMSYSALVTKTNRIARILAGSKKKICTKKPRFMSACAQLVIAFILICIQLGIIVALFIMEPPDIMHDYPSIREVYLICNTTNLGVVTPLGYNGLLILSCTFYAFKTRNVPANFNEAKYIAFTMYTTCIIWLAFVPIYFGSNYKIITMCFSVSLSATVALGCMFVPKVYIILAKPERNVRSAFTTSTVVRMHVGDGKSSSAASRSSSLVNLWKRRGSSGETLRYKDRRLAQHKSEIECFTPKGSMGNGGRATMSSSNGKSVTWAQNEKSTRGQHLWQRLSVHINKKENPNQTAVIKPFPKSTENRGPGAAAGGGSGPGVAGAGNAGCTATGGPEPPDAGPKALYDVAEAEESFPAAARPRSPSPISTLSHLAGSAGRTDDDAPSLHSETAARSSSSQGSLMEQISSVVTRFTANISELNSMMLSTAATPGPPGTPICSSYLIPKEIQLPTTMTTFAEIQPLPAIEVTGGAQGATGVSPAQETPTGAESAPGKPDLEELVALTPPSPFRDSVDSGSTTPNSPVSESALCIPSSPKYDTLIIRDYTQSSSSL
UniProt P18266: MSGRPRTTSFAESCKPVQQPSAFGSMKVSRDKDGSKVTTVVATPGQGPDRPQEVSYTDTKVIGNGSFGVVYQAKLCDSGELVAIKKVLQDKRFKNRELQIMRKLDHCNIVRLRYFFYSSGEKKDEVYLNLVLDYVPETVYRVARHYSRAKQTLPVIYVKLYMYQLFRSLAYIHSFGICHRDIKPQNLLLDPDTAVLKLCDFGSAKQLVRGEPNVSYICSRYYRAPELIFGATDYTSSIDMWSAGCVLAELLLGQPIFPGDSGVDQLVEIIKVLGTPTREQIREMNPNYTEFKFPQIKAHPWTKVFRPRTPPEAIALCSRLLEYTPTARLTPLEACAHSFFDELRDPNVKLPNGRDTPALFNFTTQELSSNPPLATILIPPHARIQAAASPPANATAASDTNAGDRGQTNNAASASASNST
UniProt Q62696: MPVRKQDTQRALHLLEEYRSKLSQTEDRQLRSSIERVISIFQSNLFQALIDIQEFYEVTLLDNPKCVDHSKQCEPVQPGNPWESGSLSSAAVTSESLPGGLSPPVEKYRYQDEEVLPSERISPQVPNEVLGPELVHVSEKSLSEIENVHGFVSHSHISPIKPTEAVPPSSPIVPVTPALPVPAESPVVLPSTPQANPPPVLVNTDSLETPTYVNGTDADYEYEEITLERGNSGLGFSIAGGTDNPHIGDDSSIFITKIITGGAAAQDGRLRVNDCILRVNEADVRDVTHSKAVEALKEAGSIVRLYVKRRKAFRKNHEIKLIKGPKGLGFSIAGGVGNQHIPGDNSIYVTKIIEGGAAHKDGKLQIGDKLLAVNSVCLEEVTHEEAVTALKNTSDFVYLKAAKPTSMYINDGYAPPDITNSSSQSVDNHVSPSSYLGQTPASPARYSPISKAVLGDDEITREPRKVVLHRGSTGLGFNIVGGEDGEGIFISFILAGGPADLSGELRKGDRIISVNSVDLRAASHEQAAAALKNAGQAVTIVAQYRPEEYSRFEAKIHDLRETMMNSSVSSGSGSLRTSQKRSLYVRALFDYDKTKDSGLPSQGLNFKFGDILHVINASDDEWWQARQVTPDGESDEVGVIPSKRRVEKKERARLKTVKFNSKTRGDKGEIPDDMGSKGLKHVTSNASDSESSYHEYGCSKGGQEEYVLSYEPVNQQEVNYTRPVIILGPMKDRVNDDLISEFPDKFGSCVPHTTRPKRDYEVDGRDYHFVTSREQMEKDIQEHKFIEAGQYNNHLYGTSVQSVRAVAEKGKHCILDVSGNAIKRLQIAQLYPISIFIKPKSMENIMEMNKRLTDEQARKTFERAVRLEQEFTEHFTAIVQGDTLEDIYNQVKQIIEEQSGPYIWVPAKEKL
UniProt Q9Z214: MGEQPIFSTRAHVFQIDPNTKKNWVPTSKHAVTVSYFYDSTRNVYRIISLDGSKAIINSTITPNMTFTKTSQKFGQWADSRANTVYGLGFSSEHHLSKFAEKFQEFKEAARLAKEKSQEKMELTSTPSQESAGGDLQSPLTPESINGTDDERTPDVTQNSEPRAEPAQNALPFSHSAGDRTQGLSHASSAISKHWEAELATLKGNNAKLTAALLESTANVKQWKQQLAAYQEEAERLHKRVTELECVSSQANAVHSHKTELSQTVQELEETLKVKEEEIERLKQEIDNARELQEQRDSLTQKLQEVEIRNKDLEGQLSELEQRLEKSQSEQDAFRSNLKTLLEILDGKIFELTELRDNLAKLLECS
UniProt P26772: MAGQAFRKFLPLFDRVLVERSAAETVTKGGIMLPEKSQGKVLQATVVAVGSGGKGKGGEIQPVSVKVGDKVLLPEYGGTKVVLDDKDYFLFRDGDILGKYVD
UniProt P17659: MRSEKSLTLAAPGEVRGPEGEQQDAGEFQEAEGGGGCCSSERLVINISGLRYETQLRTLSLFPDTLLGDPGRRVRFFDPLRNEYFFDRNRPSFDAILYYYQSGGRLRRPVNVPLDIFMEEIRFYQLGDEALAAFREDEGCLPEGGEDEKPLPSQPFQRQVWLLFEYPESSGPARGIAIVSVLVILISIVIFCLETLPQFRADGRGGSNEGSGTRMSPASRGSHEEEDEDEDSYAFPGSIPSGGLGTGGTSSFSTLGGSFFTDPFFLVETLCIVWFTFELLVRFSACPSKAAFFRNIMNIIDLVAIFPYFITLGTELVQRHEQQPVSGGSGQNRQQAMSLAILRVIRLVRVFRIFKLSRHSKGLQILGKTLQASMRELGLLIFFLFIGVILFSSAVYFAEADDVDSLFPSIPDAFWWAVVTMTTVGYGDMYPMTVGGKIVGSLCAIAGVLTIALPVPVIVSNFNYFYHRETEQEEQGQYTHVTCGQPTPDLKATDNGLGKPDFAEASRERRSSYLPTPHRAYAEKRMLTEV
UniProt P15385: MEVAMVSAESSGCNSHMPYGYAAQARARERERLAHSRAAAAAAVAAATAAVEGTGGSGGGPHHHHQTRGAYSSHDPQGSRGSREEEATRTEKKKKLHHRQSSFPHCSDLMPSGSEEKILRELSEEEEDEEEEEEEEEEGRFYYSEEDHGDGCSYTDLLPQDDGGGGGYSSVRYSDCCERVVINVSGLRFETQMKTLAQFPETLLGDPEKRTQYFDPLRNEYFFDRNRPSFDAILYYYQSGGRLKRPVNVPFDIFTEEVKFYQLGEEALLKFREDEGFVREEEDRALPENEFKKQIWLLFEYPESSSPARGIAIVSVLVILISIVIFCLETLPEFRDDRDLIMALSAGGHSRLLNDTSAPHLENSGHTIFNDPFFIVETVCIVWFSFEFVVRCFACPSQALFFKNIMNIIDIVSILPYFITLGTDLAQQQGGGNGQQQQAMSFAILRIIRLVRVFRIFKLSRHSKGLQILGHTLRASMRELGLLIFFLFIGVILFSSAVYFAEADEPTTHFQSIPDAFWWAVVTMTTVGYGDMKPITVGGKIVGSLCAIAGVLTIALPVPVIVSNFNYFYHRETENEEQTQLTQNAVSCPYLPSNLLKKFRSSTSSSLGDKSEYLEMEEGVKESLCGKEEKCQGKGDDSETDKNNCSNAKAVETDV
UniProt P63088: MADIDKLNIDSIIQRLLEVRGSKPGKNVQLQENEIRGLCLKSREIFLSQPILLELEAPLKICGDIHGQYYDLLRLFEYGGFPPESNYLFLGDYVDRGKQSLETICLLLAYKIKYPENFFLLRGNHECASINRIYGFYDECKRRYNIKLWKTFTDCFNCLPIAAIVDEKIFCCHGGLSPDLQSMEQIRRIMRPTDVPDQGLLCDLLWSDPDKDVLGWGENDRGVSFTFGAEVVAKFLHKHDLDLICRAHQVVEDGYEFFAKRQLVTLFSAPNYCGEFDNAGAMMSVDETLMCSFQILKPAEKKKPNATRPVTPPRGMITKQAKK
UniProt Q62976: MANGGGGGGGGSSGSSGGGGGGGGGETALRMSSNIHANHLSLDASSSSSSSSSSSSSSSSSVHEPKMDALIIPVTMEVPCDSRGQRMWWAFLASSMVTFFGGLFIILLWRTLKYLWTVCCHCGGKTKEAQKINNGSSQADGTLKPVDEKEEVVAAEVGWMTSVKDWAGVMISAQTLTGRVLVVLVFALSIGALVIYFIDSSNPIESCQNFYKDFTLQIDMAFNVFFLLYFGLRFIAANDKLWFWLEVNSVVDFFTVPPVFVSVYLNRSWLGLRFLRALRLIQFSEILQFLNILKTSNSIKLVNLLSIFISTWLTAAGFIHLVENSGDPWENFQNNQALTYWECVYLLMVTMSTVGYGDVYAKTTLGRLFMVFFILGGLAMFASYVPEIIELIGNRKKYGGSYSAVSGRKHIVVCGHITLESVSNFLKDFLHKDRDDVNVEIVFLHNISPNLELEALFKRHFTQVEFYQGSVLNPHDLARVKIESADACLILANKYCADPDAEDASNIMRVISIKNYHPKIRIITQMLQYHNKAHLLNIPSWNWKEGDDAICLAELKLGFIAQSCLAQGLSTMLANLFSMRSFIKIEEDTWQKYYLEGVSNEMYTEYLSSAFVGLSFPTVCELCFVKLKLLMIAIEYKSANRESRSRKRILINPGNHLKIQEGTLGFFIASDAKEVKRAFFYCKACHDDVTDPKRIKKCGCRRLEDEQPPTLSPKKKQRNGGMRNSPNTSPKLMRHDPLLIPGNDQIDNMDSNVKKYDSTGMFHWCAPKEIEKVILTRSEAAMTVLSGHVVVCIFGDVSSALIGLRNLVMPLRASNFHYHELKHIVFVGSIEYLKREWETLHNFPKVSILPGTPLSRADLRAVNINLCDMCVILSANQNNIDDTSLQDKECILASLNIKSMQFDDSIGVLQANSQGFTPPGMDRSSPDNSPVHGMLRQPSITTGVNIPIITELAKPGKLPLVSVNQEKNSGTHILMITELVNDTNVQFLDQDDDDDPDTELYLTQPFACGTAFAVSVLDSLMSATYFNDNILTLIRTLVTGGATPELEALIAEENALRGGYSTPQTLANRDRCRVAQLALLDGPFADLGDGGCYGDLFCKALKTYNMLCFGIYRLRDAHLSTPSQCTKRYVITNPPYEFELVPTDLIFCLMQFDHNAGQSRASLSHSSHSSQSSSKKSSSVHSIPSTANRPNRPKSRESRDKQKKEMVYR

Columns and labels:
Experiment in all cases: affinity purification with mass spectrometry; endogenous baits immunoprecipitated with antibodies crosslinked to Protein A or G beads from hippocampus homogenates of rats injected with saline or PCP (1.25 mg/kg, 26 min), mixed 1:1 with 15N rat brain homogenate; 4 mM HEPES pH 7, 200 mM NaCl, 0.5% Triton, 0.5% NP-40, 0.01% sodium deoxycholate; 4 °C; normal serum controls; interactors called by SAINT at 5% FDR; SILAM quantitation of PCP against saline
[1] = target: Grin2b (rat (endogenous in hippocampus)) (UniProt Q00960)
[2] = target: Ppp1ca (rat (endogenous in hippocampus)) (UniProt P62138)
[3] = target: Grm5 (rat (endogenous in hippocampus)) (UniProt P31424)
[4] = target: Gsk3b (rat (endogenous in hippocampus)) (UniProt P18266)
[5] = target: Grm5 (rat (endogenous in hippocampus)) (UniProt P31424); remark: listed apart in the source
[6] = target: Gsk3b (rat (endogenous in hippocampus)) (UniProt P18266); remark: listed apart in the source
[7] = target: Ppp1ca (rat (endogenous in hippocampus)) (UniProt P62138); remark: listed apart in the source
[8] = target: Map2k1 (rat (endogenous in hippocampus)) (UniProt Q01986)
[9] = target: Grin2b (rat (endogenous in hippocampus)) (UniProt Q00960); remark: listed apart in the source

Molecule: Dlg1 (from UniProt Q62696 1-911)
- binding [1]: binds

Molecule: Grin2a (from UniProt Q00959 23-1464) (receptor)
- binding [1]: binds

Molecule: Gsk3b (from UniProt P18266 1-420) (enzyme)
- binding [2]: binds

Molecule: Homer1 (from UniProt Q9Z214 1-366)
- binding [3]: binds

Molecule: Hspe1 (from UniProt P26772 1-102)
- binding [2]: binds

Molecule: Kcna6 (from UniProt P17659 1-530)
- binding [1]: binds

Molecule: Potassium voltage-gated channel subfamily A member 4 (Kcna4) (from UniProt P15385 1-655)
- binding [1]: binds

Molecule: Ppp1cc (from UniProt P63088 1-323) (enzyme)
- binding [4]: binds

Molecule: calcium-activated potassium channel subunit alpha-1 (Kcnma1), endogenous (from UniProt Q62976 1-1209)
- binding [3]: binds

B1: syntaxin family member Stx13 (protein, UniProt G3V7P1 1-274)
chain: MSYGPLDMYRNPGPSGPQPRDFNSIIQTCSGNIQRISQATAQIKNLMSQLGTKQDSSKLQENLQQFQHSTNQLAKETNELLKELGSLPLPLSASEQRQQKLQKERLMNDFSSALNNFQVVQRKVSEKEKESIARARAGSRLSAEDRQREEQLVSFDSHEEWNQMQSQEEEAAITEQDLELIKERETAIQQLEADILDVNQIFKDLAMMIHDQGDLIDSIEANVESSEVHVERASDQLQRAAYYQKKSRKKMCILVLVLSVIVTVLVVVIWVASK
- binding [5]: binds

B2: Ppp1r2 (protein, UniProt P50411 1-205)
chain: MAASTASHRPIKGILKNKTSTTSSVVASAEQPRRTVEEELSKKSQKWDEMNILATYHPADKDYGLMKIDEPDTPYHNMIGDDEDVCSDSEGNEVMTPEILAKKLAAAEGSEPKFRTREQESSGEEDNDLSPEEREKKRQFEMKRKLHYNEGLNIKLARQLISKDLHDDDEDEEMSETADADSMNIEESNQGSTAGDHLQHKSQSS
- binding [6]: binds
- binding [7]: binds

B3: Syngap1 (protein, UniProt Q9QUH6 1-1308)
chain: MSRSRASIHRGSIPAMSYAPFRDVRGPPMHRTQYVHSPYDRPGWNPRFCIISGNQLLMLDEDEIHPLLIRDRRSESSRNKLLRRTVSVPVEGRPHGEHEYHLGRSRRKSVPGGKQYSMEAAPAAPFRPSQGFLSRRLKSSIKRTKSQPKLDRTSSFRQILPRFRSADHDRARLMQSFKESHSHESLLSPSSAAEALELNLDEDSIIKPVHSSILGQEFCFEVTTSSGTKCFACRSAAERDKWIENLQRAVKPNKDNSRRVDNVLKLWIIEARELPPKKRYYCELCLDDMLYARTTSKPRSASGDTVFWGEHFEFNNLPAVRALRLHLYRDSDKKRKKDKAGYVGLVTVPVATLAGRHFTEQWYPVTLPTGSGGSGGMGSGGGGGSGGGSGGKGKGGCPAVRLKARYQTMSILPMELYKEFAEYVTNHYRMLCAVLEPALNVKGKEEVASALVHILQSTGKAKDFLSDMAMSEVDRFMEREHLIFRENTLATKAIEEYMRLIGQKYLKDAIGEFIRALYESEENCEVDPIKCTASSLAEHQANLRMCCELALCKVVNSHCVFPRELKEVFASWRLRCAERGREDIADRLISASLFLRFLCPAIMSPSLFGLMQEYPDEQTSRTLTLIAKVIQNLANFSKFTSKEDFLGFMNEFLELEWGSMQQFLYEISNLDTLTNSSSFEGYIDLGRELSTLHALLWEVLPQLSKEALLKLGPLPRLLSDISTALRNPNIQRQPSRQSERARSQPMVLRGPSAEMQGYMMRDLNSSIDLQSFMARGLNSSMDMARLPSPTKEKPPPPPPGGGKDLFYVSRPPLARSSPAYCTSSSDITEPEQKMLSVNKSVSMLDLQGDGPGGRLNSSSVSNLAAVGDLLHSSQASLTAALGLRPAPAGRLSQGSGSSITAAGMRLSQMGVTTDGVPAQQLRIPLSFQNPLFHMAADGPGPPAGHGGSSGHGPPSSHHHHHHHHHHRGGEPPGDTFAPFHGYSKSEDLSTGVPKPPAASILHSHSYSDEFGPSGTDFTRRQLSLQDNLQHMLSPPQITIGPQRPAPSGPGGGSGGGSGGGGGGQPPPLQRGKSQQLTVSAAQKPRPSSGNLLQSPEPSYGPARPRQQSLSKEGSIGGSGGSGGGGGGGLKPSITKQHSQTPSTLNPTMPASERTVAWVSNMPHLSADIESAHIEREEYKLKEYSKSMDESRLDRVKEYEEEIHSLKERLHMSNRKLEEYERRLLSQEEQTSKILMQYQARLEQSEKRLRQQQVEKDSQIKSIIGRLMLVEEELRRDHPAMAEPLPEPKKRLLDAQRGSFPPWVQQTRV
- binding [8]: binds

B4: Phactr3 (protein, UniProt Q6RFY2 1-517)
chain: MDQTPPARSEPLVSGIRTPPVRRNSKLATLGRIFKPWKWRKKKNEKLKQTTSALEKKMAGRQGREELIKQGLLEMMEQDSESKACSPKEGSQPAQSEPSAGEQETLTSEGVQPGSPSASGTDQASQDELLSSDAHPDDTAKMSSASSGEEADAGNLLPTTDEPSQEALSGSLDSPPRTLERSASQLPSPPLLPTPPPKASSKATKNVTGQAALFQGSSMKNNEPVLRGQLPTPTGSPHLTTVHRPLPPSRVIEELHRALATKHRQDSFQGRECRGSPKKRMDVRLSRTSSMERGKERDEAWSFDGASENKWTAAKDSEENKENLILSSELKDDLLLYQDEEALNDSIISGTLPRKCKKELLAVKLRNRPSKQELEDRNIFPRRTDEERQEIRQQIEMKLSKRLSQRPAVEELERRNILKQRNDQTEQEERREIKQRLTRKLNQRPTVDELRDRKILIRFSDYVEVARAQDYDRRADKPWTRLSAADKAAIRKELNEYKSNEMEVHASSKHLTRFHRP
- binding [7]: binds

B5: Ppp1r1b (aka DARPP-32) (protein, UniProt Q6J4I0 1-205)
chain: MDPKDRKKIQFSVPAPPSQLDPRQVEMIRRRRPTPALLFRVSEHSSPEEESSPHQRTSGEGHHPKSKRPNPCAYTPPSLKAVQRIAESHLQTISNLSENQASEEEDELGELRELGYPQEDDEEDEDEDEEEDEEEDSQAEVLKGSRGTAGQKLTSGQGLEGPWERPPPLDEPQRDGNSEDQGEGRATQSEPGEEPRHPTPPESGT
- binding [7]: binds

B6: Ubxn2b (protein, UniProt P0C627 1-331)
chain: MAEGGGAEPEEQERRSSRPRPPSARDLQLALAELYEDEMKCKSSKPDRSTATAFKSPRTPPLRLYSGDQEYGGLHIAQPPTGKIVNELFKEAREHGAVPLNEATRSSSDDKAKSFTGGGYRLGSSFYKRSEYIYGENQLQDVQILLRLWSNGFSLDDGELRPYSDPTNAQFLESVKRGEIPLELQRLVHGSQVSLDMEDHQDQEYIKPRLRFKAFSGEGQKLGSLTPEIVSTPSSPEEEDKSILNAAVLIDDSVPTTKIQIRLADGSRLIQRFNSTHRILDVRDFIVQSRPEFATTDFILVTSFPSKELTDESVTLQDADILNTVILQQLK
- binding [7]: binds

B7: Kcnab2 (protein, UniProt P62483 1-367)
chain: MYPESTTGSPARLSLRQTGSPGMIYSTRYGSPKRQLQFYRNLGKSGLRVSCLGLGTWVTFGGQITDEMAEHLMTLAYDNGINLFDTAEVYAAGKAEVVLGNIIKKKGWRRSSLVITTKIFWGGKAETERGLSRKHIIEGLKASLERLQLEYVDVVFANRPDPNTPMEETVRAMTHVINQGMAMYWGTSRWSSMEIMEAYSVARQFNLIPPICEQAEYHMFQREKVEVQLPELFHKIGVGAMTWSPLACGIVSGKYDSGIPPYSRASLKGYQWLKDKILSEEGRRQQAKLKELQAIAERLGCTLPQLAIAWCLRNEGVSSVLLGASNAEQLMENIGAIQVLPKLSSSIVHEIDSILGNKPYSKKDYRS
- binding [9]: binds
